Source: paper PMC4712875

The chains behind the UniProt entries cited, without tags or fusion partners. Where a name states a change or a piece, a line headed by the entry shows the natural chain unless it says otherwise. Residues count along the entry.
UniProt P22607, residues 23-806: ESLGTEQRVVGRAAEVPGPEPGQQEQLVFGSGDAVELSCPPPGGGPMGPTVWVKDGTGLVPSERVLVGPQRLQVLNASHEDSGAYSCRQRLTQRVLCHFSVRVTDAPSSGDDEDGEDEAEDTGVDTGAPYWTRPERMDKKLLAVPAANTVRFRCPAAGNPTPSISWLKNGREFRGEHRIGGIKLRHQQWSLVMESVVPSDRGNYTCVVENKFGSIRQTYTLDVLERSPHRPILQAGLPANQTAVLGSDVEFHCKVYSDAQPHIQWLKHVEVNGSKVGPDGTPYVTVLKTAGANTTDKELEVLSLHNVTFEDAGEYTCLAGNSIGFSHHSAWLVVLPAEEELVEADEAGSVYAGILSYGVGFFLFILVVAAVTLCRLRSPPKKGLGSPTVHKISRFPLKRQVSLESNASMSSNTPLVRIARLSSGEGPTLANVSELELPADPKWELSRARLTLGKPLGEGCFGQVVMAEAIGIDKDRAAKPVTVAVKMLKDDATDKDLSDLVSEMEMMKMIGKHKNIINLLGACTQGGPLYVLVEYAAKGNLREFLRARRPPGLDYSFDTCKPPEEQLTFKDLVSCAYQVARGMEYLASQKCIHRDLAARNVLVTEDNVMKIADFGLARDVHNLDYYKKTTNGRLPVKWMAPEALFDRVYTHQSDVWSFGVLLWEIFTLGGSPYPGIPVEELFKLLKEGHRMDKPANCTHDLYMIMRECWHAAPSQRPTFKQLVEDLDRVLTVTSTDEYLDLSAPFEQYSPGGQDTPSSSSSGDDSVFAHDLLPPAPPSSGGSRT
UniProt P43021: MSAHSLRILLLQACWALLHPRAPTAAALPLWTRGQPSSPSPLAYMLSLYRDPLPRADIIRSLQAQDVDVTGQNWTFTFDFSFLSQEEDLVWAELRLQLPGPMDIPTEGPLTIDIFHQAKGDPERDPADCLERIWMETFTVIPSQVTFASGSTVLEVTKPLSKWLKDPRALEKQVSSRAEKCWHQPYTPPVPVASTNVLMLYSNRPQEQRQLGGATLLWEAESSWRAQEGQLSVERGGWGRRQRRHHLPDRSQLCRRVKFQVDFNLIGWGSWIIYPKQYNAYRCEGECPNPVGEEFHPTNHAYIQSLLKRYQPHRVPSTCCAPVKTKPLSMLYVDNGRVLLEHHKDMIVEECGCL

Target: FGFR3-HA (UniProt P22607)
Test: co-IP; HEK293T co-transfected with wild-type mouse Nodal and FGFR3; antibody of the IP not told for this experiment

binding: binds
Substance: proNodal made from wild-type mouse Nodal (uncleaved precursor) (from UniProt P43021) (ligand)

No constants are given. Whether binding was seen depends on the method and setting. In cells and extracts the contact can be indirect. Binding calls can cover weak binding; strength is not graded here.
